Legend:
F98 rat glioma cells = assay: Immunostaining of F98 cells (micro-distribution of boron compounds); format: cell-based; settings: 2.0 mM, 24 h, anti-BSH A9H3 or anti-BPA 2B10 antibody
F98 glioma bearing rats = assay: In vivo BNCT therapeutic experiment, neutron irradiation at KURRI; design: species or system rat; settings: iv, 1 h
Text: All animal experimental procedures were approved by the Animal Use Review Board and Ethical Committee of Osaka Medical College (No. 25092, 28 October 2015) and Kyoto University Research Reactor Institute (KURRI, No. 25030-13, 1 April 2015), and performed following the Guide for the Care and Use of Laboratory Animals. Eight-week-old, male Fischer 344 rats weighing between 200 and 250 g were used (Japan SLC, Inc. Shizuoka, Japan). Rats were anesthetized with an intraperitoneal (ip) injection of a mixture of medetomidine 0.15 mg, midazolam 2 mg, and butorphanol 2.5 mg/kg body weight (bw). The head of each rat was fixed with a stereotactic frame (Model 900; David Kopf Instruments, Tujunga, CA, USA). The scalp was incised at the midline and a small burr hole was drilled into the skull (1 mm posterior and 4 mm right-lateral to the bregma), using an electric drill. And then, F98 glioma cells were injected into the brain using a 25 µL Hamilton microsyringe with a 26-gauge needle (model 1700 RN, Hamilton Bonaduz AG, Bonaduz, Switzerland). The needle was inserted at a 5 mm depth from the skull and F98 cells were diluted in 10 µL of DMEM containing low-gelling temperature agarose at a concentration of either 10^3 for therapeutic experiments or 10^5 cells for biodistribution experiments. They were injected over 30 s using an automatic infuser pump. The needle entry hole was immediately sealed with bone wax and the incised scalp was closed with 3-0 silk sutures (Ethicon, North Ryde, NSW). After surgery, all animals were given atipamezole hydrochloride (0.15 mg/kg bw, ip).
Therapeutic experiments for BNCT were performed 14 days after stereotactic implantation of 10^3 F98 glioma cells. Rats were transported to the Nuclear Reactor Laboratory at KURRI. The rats were then randomized based on weight into experimental groups of 4–6 animals as follows: Group 1, KA-BSH administered iv and via neutron irradiation; Group 2, neutron irradiation only; Group 3, untreated control. All irradiated rats were anesthetized with a mixture of medetomidine (0.15 mg/kg bw), midazolam (2 mg/kg bw) and butorphanol (2.5 mg/kg bw). BNCT was initiated 1 h after termination of iv administration of KA-BSH (10 mg ^10B/kg bw). The rats were irradiated at a reactor power of 1 MW using the Heavy Water Neutron Irradiation Facility for 1 h. The therapeutic effect of BNCT was evaluated by the survival time of the animals. Radiation dose of BNCT experiments have been estimated using the same method as we have reported. The equivalent dose for KA-BSH cannot be estimated because the CBEB for KA-BSH is unknown.2.10. Statistical analysis
The means and standard deviations (SD) were computed for ^10B concentrations of F98 glioma cells and tissues of Fischer rats bearing intracerebral implants of the F98 glioma. Logistic regression was used to determine the significance of differences in cell viability. Statistical differences between means were calculated using the Student’s unpaired t-test. In therapeutic experiments, the median survival time (MST) was calculated for each group using the Kaplan–Meier estimate. Kaplan–Meier curves were also plotted for all groups. An overall log-rank test was performed to test for equality of survival curves between groups. Statistical analyses were performed using the software JMP 12 (SAS Institute Inc., Cary, NC, USA).

[1] = DB × CBEB + DN × RBEN + DH × RBEH + Dγ
[2] = estimated from 10B concentrations

Row | Molecule | micro-distribution in F98 cells (F98 rat glioma cells) | Equivalent Dose, Brain (F98 glioma bearing rats; [1]) | Equivalent Dose, Tumor (F98 glioma bearing rats; [1]) | Physical Radiation Dose, Brain (F98 glioma bearing rats; [2]) | Physical Radiation Dose, Tumor (F98 glioma bearing rats; [2])
1 | N[C@@H](Cc1ccc(B(O)O)cc1)C(=O)O [BPA, boronophenylalanine, reference compound] | widely distributed in the cytoplasm and cell nuclei | 2.2 Gy-eq | 9.4 Gy-eq | 1.3 Gy | –
2 | dodecaboranethiol [BSH, reference compound] | did not pass through the cell membrane | – | – | – | –
3 | S-(2-(5-hydroxy-4-oxo-4H-pyran-2-yl) methyl) Thioundecahydro-Closo- Dodecaborate (2-) Disodium Salt [KA-BSH] | incorporated into the cell membrane of the F98 cells and aggregated on the fringe of the cell nuclei | – | – | 1.0 Gy | 1.1 Gy

Source: publication PMC7349888, “Synthesis and Evaluation of Dodecaboranethiol Containing Kojic Acid (KA-BSH) as a Novel Agent for Boron Neutron Capture Therapy” (Cells, 2020)
